Laboratory results reported in PubChem BioAssay AID1671190 (National Center for Advancing Translational Sciences (NCATS), 2021).
“And” between values parts separate entries of the source, which are not always exact repeats. Identical values can stand only once. Screen size: about 580,000 compounds; about 6,100 (1.1%) were called active. This list was built around the results that the source calls inconclusive (neither active nor inactive); the mix of calls is not that of the screen. Calls follow the shape of the dose curve; as a rule, active = well fitted inhibition curve with a large enough effect; inconclusive = small, poorly fitted or top-dose-only effect, or another doubt; inactive = no such curve, though single readings can be large or run the other way. A potency beside an inconclusive call is a rough fit, not a confirmed value.

Protein sequences, listed by entry. Tags and fused reporters are not part of them. Lines headed by an entry give the natural chain unless they say otherwise; changes in a name come on top.
UniProt P18054: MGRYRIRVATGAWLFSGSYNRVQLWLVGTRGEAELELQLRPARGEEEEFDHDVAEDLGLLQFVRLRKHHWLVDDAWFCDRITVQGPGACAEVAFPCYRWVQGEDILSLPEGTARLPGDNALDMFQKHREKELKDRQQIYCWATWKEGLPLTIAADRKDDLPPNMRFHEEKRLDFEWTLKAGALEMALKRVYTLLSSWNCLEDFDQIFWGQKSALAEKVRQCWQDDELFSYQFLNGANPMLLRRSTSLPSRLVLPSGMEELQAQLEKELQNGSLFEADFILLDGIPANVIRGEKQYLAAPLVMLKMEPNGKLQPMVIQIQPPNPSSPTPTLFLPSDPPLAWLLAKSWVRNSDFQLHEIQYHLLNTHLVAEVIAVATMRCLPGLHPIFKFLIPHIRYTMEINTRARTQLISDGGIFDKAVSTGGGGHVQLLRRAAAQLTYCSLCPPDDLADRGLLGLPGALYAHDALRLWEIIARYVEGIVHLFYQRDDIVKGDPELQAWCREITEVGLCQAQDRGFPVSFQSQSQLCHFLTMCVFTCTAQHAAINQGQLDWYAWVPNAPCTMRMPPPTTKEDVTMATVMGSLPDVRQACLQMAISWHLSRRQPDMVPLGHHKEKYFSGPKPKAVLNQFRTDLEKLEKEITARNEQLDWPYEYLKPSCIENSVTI

Each molecule was assayed against Polyunsaturated fatty acid lipoxygenase ALOX12 (Homo sapiens) (UniProt P18054) (assay: Primary qHTS assay for inhibitors of human arachidonate 12S-lipoxygenase (ALOX12): Round 2). Conditions: purified 12hLO, xylenol orange hydroperoxide absorbance; activity change, negative = inhibition: at 108 µM (top of the series) unless noted.
In short: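 Purified human 12hLO (150 nM final) in 25 mM Hepes, 0.01% Triton X-100, pH 7.0 was preincubated 15 min at room temperature with compound. Then 40 uM arachidonic acid was added, 30 min. Hydroperoxide was read by Fe-XO absorbance ratio 573/405 nm.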
% is scaled to controls: 0 for no effect and ±100 for the full control effect; potency is read from the fitted curve at half-maximal effect.

Row | SMILES | activity change, negative = inhibition | Potency
1 | O=C(Nc1cccc(-c2cn3cccnc3n2)c1)c1ccc2c(c1)OCO2 | inactive: -6.77% | –
2 | O=C(NCC(c1cccnc1)N1CCOCC1)c1ccc2c(c1)OCO2 (stereo unspecified) | – | inconclusive: 126 µM [inhibitor, partial curve, poor fit]
3 | CCOC(=O)c1ccc(O)c(-n2cc3c(c2-c2ccccc2)c(=O)n(C)c(=O)n3C)c1 | – | inconclusive: 50.1 µM [inhibitor, single point]
4 | Cc1ccc(-c2csc(-c3ccccc3N)n2)cc1 | – | inconclusive: 31.6 µM [inhibitor, single point]
5 | Cc1ccc(-c2cc(C(=O)NCCCc3[nH]nc(N)c3C#N)c3ccccc3n2)o1 | – | inconclusive: 22.4 µM [inhibitor, full curve, poor fit]
6 | CC1CCCN(C(=O)CNC(=O)c2sc3ccccc3c2Cl)C1 (stereo unspecified) | inactive: -11.2% | –
7 | CCN1CC2(CCN(C(=O)C(C)(C)N)CC2)CC(c2ccccc2)C1=O (stereo unspecified) | – | inconclusive: 8.91 µM [inhibitor, full curve]
8 | Cc1nc(C)c(C(=O)N2CC(C)(C)C(C)(O)C2)s1 (stereo unspecified) | – | inconclusive: 112 µM [inhibitor, partial curve, poor fit]
9 | CC1CCCCN1Cc1nc2c(c(=O)n(C)c(=O)n2C)n1CC(N)=O (stereo unspecified) | inactive: -2.22% | –
10 | Cc1ccc(SCC(=O)O/N=C(\N)c2ccncc2)cc1 | – | inconclusive: 35.5 µM [inhibitor, partial curve]
11 | O=C(Nc1ccc(F)cc1)N1CCC(O)(c2csc(CN3CCN(c4ccccn4)CC3)n2)CC1 | inactive: 12.2% | –
12 | NC(=O)c1ccc2[nH]c(CN3CCC(Oc4ncccn4)CC3)cc(=O)c2c1 | – | inconclusive: 35.5 µM [inhibitor, partial curve, poor fit]
13 | Cc1ccc(NC(=O)CN2C(=O)S/C(=C/c3ccc(-c4cccc(C(=O)O)c4)o3)C2=O)cc1 | – | active: 39.8 µM
14 | CCN1CCN(Cc2ccc(NC(=O)c3ccc(C)c(NC(=O)c4c[nH]c5cc(C(F)(F)F)ccc5c4=O)c3)cc2C(F)(F)F)CC1 | – | inactive and inconclusive: 112 µM [inhibitor, single point]
15 | CC1=CCC2C(C1)C2(C)C (stereo unspecified) | – | active: 79.4 µM
16 | Cc1ccc(CNC(=O)CSc2nc3ccccc3nc2Cc2ccc(C)cc2)cc1 | inactive: -23.1% | –
17 | O=C(/C=C/Nc1cccc(O)c1)c1ccccc1 | – | inconclusive: 0.0794 µM [inhibitor, full curve, poor fit]
18 | C/C(Cn1cnc([N+](=O)[O-])n1)=N\NC(=O)c1ccccc1 | – | inconclusive: 7.08 µM [inhibitor, partial curve, poor fit]
19 | O=C1C=CN(S(=O)(=O)c2ccc(F)cc2)C(c2cccs2)C1 (stereo unspecified) | – | inconclusive: 39.8 µM [inhibitor, partial curve, poor fit]
20 | Cc1cccc(-c2nc3c(cnn3-c3ccccc3)c(=O)n2-c2ccc(Cl)cc2)c1 | inactive: -27.4% | –
21 | Cc1ccc(-c2cc(C(=O)Nc3ccncc3)c3ccccc3n2)cc1 | – | inconclusive: 100 µM [inhibitor, single point]

Row | SMILES | activity change, negative = inhibition | Potency
22 | Cc1ccc(NC(=O)Cc2n[nH]c(=O)c3ccccc23)cc1F | inactive: -15.8% | –
23 | Cc1ccc(-c2nc(=S)c3c(n2CCN2CCOCC2)CC(C)(C)OC3)cc1 | – | inconclusive: 44.7 µM [inhibitor, partial curve, poor fit]
24 | CCC(C)NC(=O)Cn1c(=O)c2c(C)cc(C)nc2n(-c2ccccc2OC)c1=O (stereo unspecified) | inactive: -7.68% | –
25 | Cc1cc(C)c(NC(=O)CNC(=O)c2nccnc2N)c(C)c1 | inactive: 8.48% | –
26 | COc1ccc(CNC(=O)C2CCCN(S(=O)(=O)c3cc(-c4noc(C)n4)ccc3C)C2)cc1 (stereo unspecified) | – | inconclusive: 89.1 µM [inhibitor, partial curve, poor fit]
27 | COc1cc(C2C(C#N)=C(N)N(c3ccc(F)cc3)C3=C2S(=O)(=O)CC3)ccc1O (stereo unspecified) | – | inconclusive: 44.7 µM [inhibitor, partial curve, poor fit]
28 | CCOC(=O)/C(=C/c1ccc(Cl)s1)c1nccn1C | inactive: -9.62% | –
29 | Cc1ccc(CN2CCN(CC3CC4C=CC3C4)CC2)cc1 (stereo unspecified) | – | inconclusive: 0.199 µM [inhibitor, full curve, poor fit]
30 | O=c1cc(N2CCOCC2)oc2c(-c3ccc(F)cc3)nccc12 | – | inconclusive: 112 µM [inhibitor, partial curve, poor fit]
31 | CCNC(=O)CN1CCN(c2ccnc3c(F)ccc(F)c23)CC1 | – | inconclusive: 44.7 µM [inhibitor, partial curve, poor fit]
32 | CCO[C@H]1OC(C(N)=O)=C[C@@H](c2ccc(Br)cc2)[C@@H]1CCCO | – | inconclusive: 126 µM [inhibitor, single point]
33 | O=C(NCC(O)COc1ccc([N+](=O)[O-])cc1)c1ccccc1 (stereo unspecified) | – | inconclusive: 126 µM [inhibitor, single point]
34 | Cc1cc2cc(C(c3nnnn3Cc3ccco3)N3CCc4ccccc4C3)c(=O)[nH]c2cc1C (stereo unspecified) | – | inconclusive: 4.47 µM [inhibitor, single point]
35 | O=C(Cc1coc2cc3c(cc12)CCC3)OCc1cccc([N+](=O)[O-])c1 | – | inconclusive: 20 µM [inhibitor, partial curve, poor fit]
36 | O=C(CN1CCN(S(=O)(=O)c2ccc(Br)cc2)CC1)Nc1ccc2c(c1)OCO2 | – | inconclusive: 100 µM [inhibitor, single point]
37 | CCOc1cc(-c2cc(-c3ccc(C)cc3)nc(N)c2C#N)ccc1O | – | inconclusive: 17.8 µM [inhibitor, partial curve, poor fit]
38 | Cn1nc(C(F)(F)F)cc1-c1ccc(/C=C(\C#N)C(=O)c2cccc(C(F)(F)F)c2)s1 | – | inconclusive: 8.91 µM [inhibitor, partial curve, poor fit]
39 | Cc1ccccc1Sc1c(C#N)c(-c2ccccc2)nn1C | inactive: -28.1% | –
40 | Cc1cc(Br)cn2c(Cc3cccc(F)c3)c(-c3ccccc3)nc12 | – | inconclusive: 70.8 µM [inhibitor, partial curve, poor fit]
41 | CN(C)/C=C(\C=N\OCc1ccc(Cl)cc1Cl)C(=O)Nc1ccc(Cl)c(Cl)c1 | – | inconclusive: 44.7 µM [inhibitor, partial curve, poor fit]
